Source: paper PMC5216130, “Saturated palmitic acid induces myocardial inflammatory injuries through direct binding to TLR4 accessory protein MD2” (Nature Communications, 2017)
These are yes or no findings as the source states them, for the method shown. Binding seen in cells or lysates may run through a third protein. Some binding calls cover weakened binding; strength is not graded here.

The chains behind the UniProt entries cited, without tags or fusion partners. Residues count along the entry.
UniProt Q9QUK6, residues 26-835: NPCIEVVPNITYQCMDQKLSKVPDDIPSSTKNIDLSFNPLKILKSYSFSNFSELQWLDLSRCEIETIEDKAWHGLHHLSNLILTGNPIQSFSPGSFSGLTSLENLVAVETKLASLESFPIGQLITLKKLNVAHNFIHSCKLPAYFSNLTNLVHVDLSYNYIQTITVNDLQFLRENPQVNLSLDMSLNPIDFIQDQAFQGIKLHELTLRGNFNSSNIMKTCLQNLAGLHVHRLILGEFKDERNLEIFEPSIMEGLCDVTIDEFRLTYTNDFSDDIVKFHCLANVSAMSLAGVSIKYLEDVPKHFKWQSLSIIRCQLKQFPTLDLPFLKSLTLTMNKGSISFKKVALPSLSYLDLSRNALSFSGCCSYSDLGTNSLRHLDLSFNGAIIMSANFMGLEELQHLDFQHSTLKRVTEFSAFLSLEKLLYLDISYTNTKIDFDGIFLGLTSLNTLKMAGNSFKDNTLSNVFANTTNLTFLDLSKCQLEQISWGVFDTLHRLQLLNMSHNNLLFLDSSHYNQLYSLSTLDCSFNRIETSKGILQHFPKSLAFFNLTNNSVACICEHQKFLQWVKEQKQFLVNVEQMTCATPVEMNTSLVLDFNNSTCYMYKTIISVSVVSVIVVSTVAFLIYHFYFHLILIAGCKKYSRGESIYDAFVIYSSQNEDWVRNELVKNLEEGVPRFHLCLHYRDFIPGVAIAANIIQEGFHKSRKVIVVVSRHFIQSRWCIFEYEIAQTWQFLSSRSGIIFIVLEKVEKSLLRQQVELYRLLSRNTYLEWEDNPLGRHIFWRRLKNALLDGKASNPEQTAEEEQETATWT
UniProt P22366: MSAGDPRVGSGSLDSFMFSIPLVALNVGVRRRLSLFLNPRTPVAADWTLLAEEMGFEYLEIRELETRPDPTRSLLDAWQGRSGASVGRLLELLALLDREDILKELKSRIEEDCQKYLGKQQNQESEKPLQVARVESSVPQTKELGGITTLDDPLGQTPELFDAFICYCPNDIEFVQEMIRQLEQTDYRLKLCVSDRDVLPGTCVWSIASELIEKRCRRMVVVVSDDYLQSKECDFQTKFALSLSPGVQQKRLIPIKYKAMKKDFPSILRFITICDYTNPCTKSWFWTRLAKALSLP

Columns and labels:
[1] = biological target: Toll-like receptor 4 (TLR4) (mouse (endogenous in mouse primary macrophages)) (UniProt Q9QUK6); experiment: condition: only macrophages pretreated with the MD2 inhibitor L6H9 (10 uM); co-IP; as a1, macrophages pretreated with the small-molecule MD2 inhibitor L6H9 (10 uM) before 100 uM PA
[2] = biological target: Toll-like receptor 4 (TLR4) (mouse (endogenous in mouse primary macrophages)) (UniProt Q9QUK6); experiment: co-IP; mouse primary macrophages stimulated with 100 uM PA (palmitic acid); cell extracts incubated with anti-MD2 (blot: TLR4) or anti-TLR4 (blot: MyD88) antibody 1 h, protein G beads at 4 C overnight
[3] = biological target: Toll-like receptor 4 (TLR4) (mouse (endogenous in mouse primary macrophages)) (UniProt Q9QUK6); experiment: condition: only macrophages pretreated with MD2-neutralizing antibody (anti-MD2, 100 ng ml^-1); co-IP; as a1, macrophages pretreated with MD2-neutralizing antibody (anti-MD2, 100 ng ml^-1) before 100 uM PA
[4] = biological target: T1, myeloid differentiation protein 2 (MD2) (mouse (endogenous in mouse primary macrophages)) (UniProt Q9JHF9); experiment: co-IP; the experiment of a4 (wild-type primary macrophages, exogenous Fetuin A and PA), for the two endogenous proteins MD2 and TLR4
T1 sequence: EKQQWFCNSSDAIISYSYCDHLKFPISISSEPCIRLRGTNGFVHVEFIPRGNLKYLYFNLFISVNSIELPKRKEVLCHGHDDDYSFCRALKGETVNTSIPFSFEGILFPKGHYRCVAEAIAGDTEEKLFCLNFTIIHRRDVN

[5] = biological target: T1, myeloid differentiation protein 2 (MD2) (mouse (endogenous in mouse primary macrophages)); experiment: co-IP; mouse primary macrophages stimulated with 100 uM PA (palmitic acid); cell extracts incubated with anti-MD2 (blot: TLR4) or anti-TLR4 (blot: MyD88) antibody 1 h, protein G beads at 4 C overnight

MyD88 (from UniProt P22366 1-296)
binding [1]: no binding
binding [2]: binds
binding [3]: no binding

Toll-like receptor 4 (TLR4) (from UniProt Q9QUK6 26-835)
binding [4]: binds
binding [5]: binds
